# Results from the supplement of paper PMC12819154, “High-throughput peptide-centric local stability assay extends protein–ligand identification to membrane proteins, tissues and bacteria” (Nature Structural & Molecular Biology, 2025).
# Protein sequences, listed by entry. Tags and fused reporters are not part of them. Lines headed by an entry give the natural chain unless they say otherwise; changes in a name come on top.
# UniProt Q9D1X0: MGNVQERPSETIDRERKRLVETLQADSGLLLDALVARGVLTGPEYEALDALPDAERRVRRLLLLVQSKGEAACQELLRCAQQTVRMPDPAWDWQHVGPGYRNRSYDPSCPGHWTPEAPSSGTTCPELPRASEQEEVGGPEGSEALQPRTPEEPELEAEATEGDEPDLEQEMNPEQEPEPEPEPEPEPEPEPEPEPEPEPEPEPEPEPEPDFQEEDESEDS
# UniProt Q9D7N6: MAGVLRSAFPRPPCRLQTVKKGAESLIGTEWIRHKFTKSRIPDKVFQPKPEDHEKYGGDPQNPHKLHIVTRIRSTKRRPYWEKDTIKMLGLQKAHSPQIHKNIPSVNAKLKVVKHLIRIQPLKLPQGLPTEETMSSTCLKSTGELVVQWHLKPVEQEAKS
# UniProt Q9D8T7: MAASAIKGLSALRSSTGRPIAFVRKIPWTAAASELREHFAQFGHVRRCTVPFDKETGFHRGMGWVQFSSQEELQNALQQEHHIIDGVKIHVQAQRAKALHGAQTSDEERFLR
# UniProt Q9D7N3, whole entry: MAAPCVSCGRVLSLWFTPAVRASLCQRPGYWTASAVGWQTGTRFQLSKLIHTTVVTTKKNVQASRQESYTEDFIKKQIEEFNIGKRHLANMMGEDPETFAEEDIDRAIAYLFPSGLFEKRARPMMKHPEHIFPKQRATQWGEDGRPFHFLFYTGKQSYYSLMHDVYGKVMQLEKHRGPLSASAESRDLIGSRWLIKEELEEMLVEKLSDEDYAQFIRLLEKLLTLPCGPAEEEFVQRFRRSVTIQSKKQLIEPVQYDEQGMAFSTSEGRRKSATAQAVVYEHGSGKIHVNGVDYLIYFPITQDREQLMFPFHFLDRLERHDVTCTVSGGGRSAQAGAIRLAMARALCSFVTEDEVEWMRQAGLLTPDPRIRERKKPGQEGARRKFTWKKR
# UniProt Q9D902: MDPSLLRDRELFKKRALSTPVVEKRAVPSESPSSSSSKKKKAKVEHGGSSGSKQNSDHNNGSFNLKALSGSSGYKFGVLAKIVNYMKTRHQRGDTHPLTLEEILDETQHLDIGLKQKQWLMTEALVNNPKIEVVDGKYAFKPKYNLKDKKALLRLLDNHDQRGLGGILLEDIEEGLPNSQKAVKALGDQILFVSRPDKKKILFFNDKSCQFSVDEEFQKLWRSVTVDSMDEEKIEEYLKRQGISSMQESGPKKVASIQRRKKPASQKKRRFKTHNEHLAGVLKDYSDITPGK
# UniProt Q9D9V3: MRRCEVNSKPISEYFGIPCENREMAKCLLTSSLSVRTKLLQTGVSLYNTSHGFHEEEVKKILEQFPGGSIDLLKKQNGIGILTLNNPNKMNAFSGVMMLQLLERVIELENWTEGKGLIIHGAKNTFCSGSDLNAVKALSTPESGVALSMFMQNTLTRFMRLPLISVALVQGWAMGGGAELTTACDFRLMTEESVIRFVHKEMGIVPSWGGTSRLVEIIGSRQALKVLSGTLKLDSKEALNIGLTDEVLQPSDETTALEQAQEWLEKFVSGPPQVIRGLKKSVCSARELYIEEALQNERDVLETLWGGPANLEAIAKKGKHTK
# UniProt Q9D3D9: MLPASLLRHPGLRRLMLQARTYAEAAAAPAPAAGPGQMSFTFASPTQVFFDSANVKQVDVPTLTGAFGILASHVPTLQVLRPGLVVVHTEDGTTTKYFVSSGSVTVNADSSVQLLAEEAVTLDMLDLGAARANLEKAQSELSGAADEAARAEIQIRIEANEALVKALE
# UniProt Q9D855: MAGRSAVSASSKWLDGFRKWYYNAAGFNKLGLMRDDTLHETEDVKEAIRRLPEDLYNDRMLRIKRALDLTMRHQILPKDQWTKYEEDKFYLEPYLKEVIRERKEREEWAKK
# UniProt Q9D4J7: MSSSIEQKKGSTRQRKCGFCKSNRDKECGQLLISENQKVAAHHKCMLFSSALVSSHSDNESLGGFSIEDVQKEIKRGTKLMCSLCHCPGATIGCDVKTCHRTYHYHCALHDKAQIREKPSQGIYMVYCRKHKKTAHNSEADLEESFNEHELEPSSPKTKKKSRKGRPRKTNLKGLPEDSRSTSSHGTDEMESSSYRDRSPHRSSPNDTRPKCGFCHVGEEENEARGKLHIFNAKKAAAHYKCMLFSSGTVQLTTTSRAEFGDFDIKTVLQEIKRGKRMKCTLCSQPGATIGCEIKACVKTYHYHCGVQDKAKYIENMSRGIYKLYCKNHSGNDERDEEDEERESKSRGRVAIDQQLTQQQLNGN
# UniProt Q9D1Q4: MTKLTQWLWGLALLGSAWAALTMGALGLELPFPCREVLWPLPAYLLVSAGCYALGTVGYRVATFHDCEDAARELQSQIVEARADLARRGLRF
# UniProt Q9D1Z3: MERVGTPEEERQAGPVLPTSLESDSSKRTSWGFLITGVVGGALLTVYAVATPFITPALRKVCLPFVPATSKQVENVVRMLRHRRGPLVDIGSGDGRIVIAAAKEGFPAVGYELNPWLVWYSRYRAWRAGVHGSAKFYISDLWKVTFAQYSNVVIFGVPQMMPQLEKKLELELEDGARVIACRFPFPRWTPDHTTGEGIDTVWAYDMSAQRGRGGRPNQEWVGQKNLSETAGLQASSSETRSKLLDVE
# UniProt Q9D903: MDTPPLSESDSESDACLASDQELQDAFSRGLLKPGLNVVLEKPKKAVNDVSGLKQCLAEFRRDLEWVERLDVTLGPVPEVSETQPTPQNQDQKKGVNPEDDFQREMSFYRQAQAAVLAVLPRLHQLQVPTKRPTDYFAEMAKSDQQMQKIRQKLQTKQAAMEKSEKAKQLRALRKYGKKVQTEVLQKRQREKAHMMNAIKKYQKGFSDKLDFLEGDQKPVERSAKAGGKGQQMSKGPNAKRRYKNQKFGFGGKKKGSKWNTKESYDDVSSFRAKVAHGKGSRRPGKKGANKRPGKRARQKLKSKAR
# UniProt Q9DAK9: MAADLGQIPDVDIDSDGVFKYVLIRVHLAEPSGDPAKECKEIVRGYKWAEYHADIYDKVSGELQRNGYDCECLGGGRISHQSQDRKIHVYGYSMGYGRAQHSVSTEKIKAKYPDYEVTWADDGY
# UniProt Q9D8U8: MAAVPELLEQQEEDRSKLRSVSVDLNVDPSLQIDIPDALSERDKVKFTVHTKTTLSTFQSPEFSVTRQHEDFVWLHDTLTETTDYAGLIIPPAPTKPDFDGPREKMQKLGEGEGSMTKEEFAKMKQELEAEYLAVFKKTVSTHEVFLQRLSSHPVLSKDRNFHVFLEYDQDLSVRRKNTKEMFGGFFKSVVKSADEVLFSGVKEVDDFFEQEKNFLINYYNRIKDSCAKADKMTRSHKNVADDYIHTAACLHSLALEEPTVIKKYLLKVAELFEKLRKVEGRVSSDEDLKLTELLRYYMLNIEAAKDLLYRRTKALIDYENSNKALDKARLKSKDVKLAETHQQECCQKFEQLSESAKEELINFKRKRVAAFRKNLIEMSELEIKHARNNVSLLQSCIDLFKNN
# UniProt Q9D8X0: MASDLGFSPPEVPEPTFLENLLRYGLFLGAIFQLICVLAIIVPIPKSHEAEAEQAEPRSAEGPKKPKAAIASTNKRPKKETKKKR
# UniProt Q9D832: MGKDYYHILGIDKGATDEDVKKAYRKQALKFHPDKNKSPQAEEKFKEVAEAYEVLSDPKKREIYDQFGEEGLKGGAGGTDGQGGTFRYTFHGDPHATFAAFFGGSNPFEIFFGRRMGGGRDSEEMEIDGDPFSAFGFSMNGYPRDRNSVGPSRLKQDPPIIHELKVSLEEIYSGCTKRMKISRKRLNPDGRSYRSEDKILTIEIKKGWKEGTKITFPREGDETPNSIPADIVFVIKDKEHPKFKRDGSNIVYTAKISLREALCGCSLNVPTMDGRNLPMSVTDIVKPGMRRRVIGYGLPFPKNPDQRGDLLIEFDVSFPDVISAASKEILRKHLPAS
# UniProt Q9D4H1: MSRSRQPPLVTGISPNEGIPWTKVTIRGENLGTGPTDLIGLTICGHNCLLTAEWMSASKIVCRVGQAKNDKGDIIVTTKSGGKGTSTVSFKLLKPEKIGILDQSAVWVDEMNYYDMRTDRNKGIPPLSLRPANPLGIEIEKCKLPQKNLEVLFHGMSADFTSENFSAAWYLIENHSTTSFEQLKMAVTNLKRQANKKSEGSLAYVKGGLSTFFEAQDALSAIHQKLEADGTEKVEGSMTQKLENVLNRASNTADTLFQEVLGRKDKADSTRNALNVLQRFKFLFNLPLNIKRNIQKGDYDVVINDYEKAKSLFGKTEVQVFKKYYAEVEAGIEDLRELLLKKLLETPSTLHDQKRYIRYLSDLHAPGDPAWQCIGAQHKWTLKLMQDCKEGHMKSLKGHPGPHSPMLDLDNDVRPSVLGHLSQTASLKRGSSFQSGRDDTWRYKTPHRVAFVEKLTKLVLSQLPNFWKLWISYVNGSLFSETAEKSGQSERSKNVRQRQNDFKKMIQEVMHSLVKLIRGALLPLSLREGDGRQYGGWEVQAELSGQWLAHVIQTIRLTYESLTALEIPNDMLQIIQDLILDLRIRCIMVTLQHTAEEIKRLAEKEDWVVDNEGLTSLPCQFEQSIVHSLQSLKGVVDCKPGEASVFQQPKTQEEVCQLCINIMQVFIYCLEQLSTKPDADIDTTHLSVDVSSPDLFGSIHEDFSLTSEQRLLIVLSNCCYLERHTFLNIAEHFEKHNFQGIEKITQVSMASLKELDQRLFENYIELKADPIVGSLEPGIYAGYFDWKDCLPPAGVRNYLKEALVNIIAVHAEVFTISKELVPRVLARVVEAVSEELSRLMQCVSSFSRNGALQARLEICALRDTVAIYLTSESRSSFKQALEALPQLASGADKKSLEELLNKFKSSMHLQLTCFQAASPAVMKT
# UniProt Q9D3W4, whole entry: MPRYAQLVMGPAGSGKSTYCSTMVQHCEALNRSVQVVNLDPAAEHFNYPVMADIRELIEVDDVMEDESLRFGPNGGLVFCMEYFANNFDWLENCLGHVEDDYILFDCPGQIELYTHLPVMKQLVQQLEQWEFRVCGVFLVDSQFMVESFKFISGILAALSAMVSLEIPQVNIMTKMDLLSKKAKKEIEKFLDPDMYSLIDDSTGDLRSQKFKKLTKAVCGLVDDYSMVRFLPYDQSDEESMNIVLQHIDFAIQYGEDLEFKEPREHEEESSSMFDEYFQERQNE
# UniProt Q9D7J4: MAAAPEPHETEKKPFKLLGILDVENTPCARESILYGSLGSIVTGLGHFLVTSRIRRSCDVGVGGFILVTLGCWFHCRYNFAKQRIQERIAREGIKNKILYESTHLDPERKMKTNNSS
# UniProt Q9D5J6: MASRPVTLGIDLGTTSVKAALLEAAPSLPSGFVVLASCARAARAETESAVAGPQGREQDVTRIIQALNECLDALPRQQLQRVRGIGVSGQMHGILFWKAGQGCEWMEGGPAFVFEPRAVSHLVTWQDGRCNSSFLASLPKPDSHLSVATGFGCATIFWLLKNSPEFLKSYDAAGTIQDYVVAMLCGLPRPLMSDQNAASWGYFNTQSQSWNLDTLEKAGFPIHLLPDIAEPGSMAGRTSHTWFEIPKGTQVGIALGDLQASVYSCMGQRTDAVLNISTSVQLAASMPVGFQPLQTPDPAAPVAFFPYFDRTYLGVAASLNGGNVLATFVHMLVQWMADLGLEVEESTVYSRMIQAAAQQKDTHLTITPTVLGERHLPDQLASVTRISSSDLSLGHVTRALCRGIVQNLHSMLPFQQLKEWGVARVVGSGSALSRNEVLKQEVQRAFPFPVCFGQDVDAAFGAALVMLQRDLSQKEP
# UniProt Q9D752, whole entry: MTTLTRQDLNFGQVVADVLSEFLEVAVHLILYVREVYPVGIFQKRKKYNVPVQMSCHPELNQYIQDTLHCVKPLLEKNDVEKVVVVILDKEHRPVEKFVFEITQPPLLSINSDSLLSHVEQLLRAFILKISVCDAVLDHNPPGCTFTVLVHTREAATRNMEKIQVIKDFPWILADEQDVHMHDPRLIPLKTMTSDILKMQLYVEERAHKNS
# UniProt Q9D1P4: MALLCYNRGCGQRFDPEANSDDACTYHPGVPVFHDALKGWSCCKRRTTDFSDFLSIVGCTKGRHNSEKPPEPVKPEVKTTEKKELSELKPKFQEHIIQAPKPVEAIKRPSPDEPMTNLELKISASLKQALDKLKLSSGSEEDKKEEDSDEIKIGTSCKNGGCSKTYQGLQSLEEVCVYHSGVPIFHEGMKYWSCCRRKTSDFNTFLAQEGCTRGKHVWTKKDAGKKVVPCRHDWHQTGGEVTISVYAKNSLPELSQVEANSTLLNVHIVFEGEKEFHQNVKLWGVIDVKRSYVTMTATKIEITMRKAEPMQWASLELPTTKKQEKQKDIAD
# The list shows a part of the results. Most values lie at the level of the controls, where differences are scatter.
# Compound: CN[C@@H]1C[C@H]2O[C@@](C)([C@@H]1OC)n1c3ccccc3c3c4c(c5c6ccccc6n2c5c31)C(=O)NC4 [staurosporine]
# Test: log2 fold change of tryptic peptide abundance, ligand vs vehicle (limited proteolysis) (log2 ratio); higher = more trypsin-susceptible (destabilized)
# Conditions: ligand concentration: 20 uM; sample: mouse liver crude lysate; replicate design: treated separately
row,Target,log2 fold change
1,"UniProt Q9D1X0 (peptide sequence: MPDPAWDWQHVGPGYR, peptide start residue: 86)",0.185
2,"UniProt Q9D7N6 (peptide sequence: VFQPKPEDHEK, peptide start residue: 45)",0.259
3,"UniProt Q9D8T7 (peptide sequence: KIPWTAAASELR, peptide start residue: 25)",0.165
4,"UniProt Q9D7N3 (peptide sequence: QSYYSLMHDVYGK, peptide start residue: 156)",-0.225
5,"UniProt Q9D902 (peptide sequence: LLDNHDQR, peptide start residue: 155)",-0.815
6,"UniProt Q9D338 (peptide sequence: FLSPEFIPPR, peptide start residue: 75)",0.177
7,"UniProt Q9D9Z5 (peptide sequence: KRDQEQVEAEGESSAPPR, peptide start residue: 71)",0.349
8,"UniProt Q9D9V3 (peptide sequence: LVEIIGSR, peptide start residue: 214)",-0.647
9,"UniProt Q9D3D9 (peptide sequence: IEANEALVKALE, peptide start residue: 157)",0.559
10,"UniProt Q9D855 (peptide sequence: LGLMRDDTLHETEDVKEAIR, peptide start residue: 30)",-0.403
11,"UniProt Q9D4J7 (peptide sequence: GKLHIFNAK, peptide start residue: 226)",0.243
12,"UniProt Q9D1Q4 (peptide sequence: VATFHDCEDAAR, peptide start residue: 61)",0.0939
13,"UniProt Q9D1Z3 (peptide sequence: GGRPNQEWVGQK, peptide start residue: 213)",-0.114
14,"UniProt Q9D903 (peptide sequence: VQTEVLQKR, peptide start residue: 180)",-0.526
15,"UniProt Q9DAK9 (peptide sequence: WAEYHADIYDK, peptide start residue: 48)",-0.371
16,"UniProt Q9D8U8 (peptide sequence: EELINFK, peptide start residue: 359)",0.297
17,"UniProt Q9D8X0 (peptide sequence: SHEAEAEQAEPR, peptide start residue: 47)",0.187
18,"UniProt Q9D832 (peptide sequence: EGDETPNSIPADIVFVIKDKEHPK, peptide start residue: 219)",0.155
19,"UniProt Q9D773 (peptide sequence: IRPLPPMK, peptide start residue: 287)",0.233
20,"UniProt Q9D4H1 (peptide sequence: GGLSTFFEAQDALSAIHQK, peptide start residue: 207)",0.677
21,"UniProt Q9D3W4 (peptide sequence: STYCSTMVQHCEALNR, peptide start residue: 17)",-0.0576
22,"UniProt Q9D7J4 (peptide sequence: ILYESTHLDPERK, peptide start residue: 98)",-0.108
23,"UniProt Q9D5J6 (peptide sequence: HLPDQLASVTR, peptide start residue: 375)",0.103
24,"UniProt Q9D752 (peptide sequence: TMTSDILK, peptide start residue: 191)",0.0631
25,"UniProt Q9D1P4 (peptide sequence: SYVTMTATK, peptide start residue: 291)",0.121

# Reprinted at random: 2 entries already listed
row,Target,log2 fold change
8,"UniProt Q9D9V3 (peptide sequence: LVEIIGSR, peptide start residue: 214)",-0.647
18,"UniProt Q9D832 (peptide sequence: EGDETPNSIPADIVFVIKDKEHPK, peptide start residue: 219)",0.155
